About 3,700 (1.2%) of roughly 300,000 compounds were called active. Inconclusive means that the source gave no clear call. Such entries were picked first, then a sample of the others. Calls follow the shape of the full dose curve; tested in HEK293 cells. Potencies of inconclusive entries are doubtful fits and often do not repeat.
Test: qHTS for Inhibitors of binding or entry into cells for Lassa Virus; also: nearly all actives have a fitted effect of over 50% in size
Conditions: Lassa virus pseudotype entry inhibition, cell reporter; series mostly up to 37.9 µM
Potency is read from the fitted curve at half-maximal effect.

| SMILES | Potency |
| --- | --- |
| CCC(=O)NC(c1ccc(Cl)cc1Cl)c1ccc2cccnc2c1O (configuration not stated) | inconclusive: 1.12 µM [inhibitor, full curve, poor fit] |
| O=C(CSc1ccccc1)Nc1ccncc1 | inactive |
| COc1ccc(-c2[nH]c(-c3ccccc3)nc2SCC(=O)Nc2ccc3c(c2)OCO3)cc1 | inconclusive: 22.4 µM [inhibitor, single point] |
| O=C1C(O)CCN1C1CCCCC1 (configuration not stated) | inconclusive: 31.6 µM [activator, single point] |
| Cc1ccc(C(=O)N2CCCCCC2)cc1S(=O)(=O)Nc1ccccc1 | inconclusive: 2.82 µM [inhibitor, single point] |
| N/C(=N\OC(=O)c1cc(Cl)ccc1Cl)c1cccnc1 | inconclusive: 16.4 µM [activator, single point] |
| CCc1nccn1-c1cc(C(C)(C)C)nc2c(-c3ccc(Cl)cc3)cnn12 | inactive |
| Cc1c(Cl)cccc1NC(=O)C(=O)NCCc1csc(-c2cccc(F)c2)n1 | inactive |
| O=C(NCCc1ccc(Cl)cc1)c1ccc2c(c1)N(Cc1ccc(F)cc1Cl)C(=O)CS2 | inconclusive: 2.24 µM [activator, single point] |
| Cc1ccc(/C=C/c2onc(C)c2S(=O)(=O)N2CCC(C(=O)NCc3ccc(Cl)cc3)CC2)cc1 | inactive |
| CCc1c(C)nc2c(-c3ccccc3)c[nH]n2c1=O | inactive |
| COc1ccc(NC(=S)N(CCN2CCOCC2)Cc2ccccc2F)cc1 | inconclusive: 1.78 µM [inhibitor, partial curve, poor fit] |
| c1ccc(-c2noc(-c3ccc4ccccc4c3)n2)cc1 | inconclusive: 20.6 µM [inhibitor, single point] |
| COc1ccc(CC(=O)Nc2cccc3ccccc23)cc1OC | inconclusive: 14.1 µM [inhibitor, single point] |
| CCCCN(C(=O)CCC(=O)O)C1CC(=O)N(c2ccc(OCCC)cc2)C1=O (configuration not stated) | inactive |
| O=C(O)c1cccc(C(=O)c2cccc3ccccc23)c1 | inconclusive: 22.4 µM [activator, single point] |
| COc1ccc(/C=N/NC(=O)CCSc2nc3ccccc3s2)cc1 | inconclusive: 2.31 µM [inhibitor, full curve] |
| O=C(NCc1nnc(SCc2ccc(F)cc2)n1-c1ccc(F)cc1)C12CC3CC(CC(C3)C1)C2 | inconclusive: 35.5 µM [inhibitor, single point] |
| CCOc1cc(/C=N/NC(=O)c2cc(C3CC3)[nH]n2)ccc1O | inactive |
| COc1ccc(S(=O)(=O)Nc2c(O)ccc3ccccc23)cc1OC | inconclusive: 1.26 µM [inhibitor, single point] |
| O=C(COc1ccc(Cl)cc1)Nc1ccc(Cl)cn1 | inconclusive: 4.47 µM [activator, partial curve, poor fit] |
| Cn1cc(Br)c(C(=O)Nc2sc3c(c2C(N)=O)CCC3)n1 | inconclusive: 1.26 µM [activator, full curve, poor fit] |
| Cc1nnc(N2CCC(C(=O)NCc3cccc(Cl)c3)CC2)c2nn(-c3ccccc3)c(C)c12 | inconclusive: 8.91 µM [inhibitor, partial curve, poor fit] |

By substructure, those above with a COOH group.

| SMILES | Potency |
| --- | --- |
| CCCCN(C(=O)CCC(=O)O)C1CC(=O)N(c2ccc(OCCC)cc2)C1=O (configuration not stated) | inactive |
| O=C(O)c1cccc(C(=O)c2cccc3ccccc23)c1 | inconclusive: 22.4 µM [activator, single point] |

Going on with the list:

| SMILES | Potency |
| --- | --- |
| CCc1ccccc1N1CC(c2nc3ccccc3n2CCC2CCCCC2)CC1=O (configuration not stated) | inconclusive: 28.2 µM [inhibitor, partial curve, poor fit] |
| CCCOc1ccccc1C(=O)Nc1nc2c(s1)CCCC2 | inconclusive: 14.1 µM [inhibitor, single point] |
| Cc1ccc(S(=O)(=O)N(CCC(=O)Nc2ccc(OC(F)(F)F)cc2)c2ccccc2)cc1 | inconclusive: 29.1 µM [inhibitor, single point] |
| Cc1cccc(NC(=S)N/N=C(\c2ccccc2)C(C)C)c1 | inconclusive: 6.31 µM [inhibitor, single point] |
| CSc1nc(-c2ccc(Cl)cc2)nn1C(=O)c1ccccc1 | inactive |
| CCn1c(SCC(=O)Nc2ccc(OC)cc2OC)nc2nc3c(cc2c1=O)COC(C)(C)C3 | inconclusive: 6.31 µM [inhibitor, full curve, poor fit] |
| COc1ccc(C(=O)Nc2ccc3c(c2)N(C)C(=O)c2ccccc2S3)cc1OC | inconclusive: 11.2 µM [inhibitor, single point] |
| CCNc1oc(COc2ccccc2F)nc1C#N | inactive |
| COC(=O)Cc1c(C)c2ccc(OCc3nn[nH]n3)c(C)c2oc1=O | inactive |
| Cc1ccc(-n2nc(C)c(C(=O)NCCCN3CCN(c4ccccc4F)CC3)c2-n2cccc2)cc1 | inconclusive: 35.5 µM [inhibitor, single point] |
| CCCNC(=O)c1cc(-c2ccc(OC)cc2)n(CCCOC)c1C | inconclusive: 25.9 µM [inhibitor, partial curve, poor fit] |
| CCOC(=O)C1CCCN(C(=O)c2cn(C)c(=O)c3cc(OC)c(OC)cc23)C1 (configuration not stated) | inactive |
| C=C1c2cc(C)c(C)cc2NC(=O)N1c1ccccc1 | inconclusive: 5.62 µM [activator, single point] |
| CCc1nn(CC(=O)NCCCN(C)C2CCCCC2)c(=O)c2cc3occc3n12 | inconclusive: 17.8 µM [activator, partial curve, poor fit] |
| COc1cc(OC)c(NC(=O)C(C)n2nc(-c3ccc(C)c(C)c3)ccc2=O)cc1Cl (configuration not stated) | inactive |
| COc1cccc(NC(=O)CSc2nnc(NC(=O)NC3CCCCC3)s2)c1 | inconclusive: 5.62 µM [activator, single point] |
| Cc1cccc(C)c1OCc1cc(=O)n2ccsc2n1 | inconclusive: 7.94 µM [activator, partial curve, poor fit] |
| CCN(CC(=O)NCc1ccc(F)cc1)C(=O)c1ccc(C(=O)c2ccccc2)cc1 | inconclusive: 28.2 µM [inhibitor, single point] |
| CC(C)(C)CC(C)(C)NC1=CC(=O)OC12CCCCC2 | inconclusive: 32.6 µM [inhibitor, partial curve, poor fit] |
| COc1ccc(Br)cc1/C=N/NC(=O)CNC(=O)C1COc2ccccc2O1 (configuration not stated) | inactive |
| O=C(COC(=O)Cc1ccc(-c2ccccc2)cc1)NCc1ccc(F)cc1 | inconclusive: 35.5 µM [inhibitor, single point] |
| COc1ccc(C2(c3ccc(OC)cc3)NC(=O)NC2=O)cc1 | inconclusive: 2 µM [inhibitor, full curve, poor fit] |
| O=S1(=O)N=C(Nc2ccc(N3CCOCC3)c(Cl)c2)c2ccccc21 | inconclusive: 22.4 µM [inhibitor, single point] |

| SMILES | Potency |
| --- | --- |
| COc1ccc(CCN=C2SCC(=O)N2Cc2ccccc2)cc1OC | inconclusive: 10 µM [inhibitor, partial curve, poor fit] |
| CCN1C(=O)N/C(=C/c2cc(C)n(Cc3ccccc3)c2C)C1=O | inconclusive: 9.2 µM [inhibitor, single point] |
| Cc1cc(SCCOc2ccccc2)nc(N)n1 | inactive |
| CCN(CC)C1=N/C(=C\c2ccc(OC)cc2)C(=O)N1c1ccccc1 | active: 0.891 µM |
| O=C(CNC(=O)c1ccc(Cl)cc1)c1ccc(Cl)cc1 | inactive |
| Cc1ccc(S(=O)(=O)C2(C(=O)N3CCN(c4ccccc4F)CC3)CC2)cc1 | inactive |
| Cc1cccc(N2CCN(C(=O)c3c4c(nc5ccccc35)C(=O)N(C3CCCCC3)C4)CC2)c1C | inconclusive: 5.62 µM [activator, single point] |
| Fc1ccc(CNc2ccc(N3CCN(Cc4ccccc4)CC3)cc2)cc1 | inconclusive: 8.91 µM [inhibitor, partial curve, poor fit] |
| O=C(c1cccc(S(=O)(=O)N2CCc3ccccc32)c1)N1CCCC(C(F)(F)F)C1 (configuration not stated) | inactive |
| COc1cccc(Nc2ncnc3sccc23)c1 | inconclusive: 5.62 µM [inhibitor, single point] |
| O=S1(=O)c2cccc(Cl)c2OC[C@H](c2ccccc2)N1Cc1ccc(F)cc1F | inconclusive: 0.0063 µM [inhibitor, full curve, poor fit] |
| CC(=O)Nc1nc(C)c(-c2csc(Nc3cccc([N+](=O)[O-])c3)n2)s1 | inconclusive: 11.2 µM [inhibitor, partial curve, poor fit] |
| N#Cc1ccsc1NC(=O)CCN1CCN(C(c2ccccc2)c2ccccc2)CC1 | inconclusive: 22.4 µM [inhibitor, partial curve, poor fit] |
| O=C(Nc1ccccc1C(=O)N1CCOCC1)c1cccnc1 | inconclusive: 32.6 µM [inhibitor, single point] |
| COc1ccc(C(=O)NCCc2ccccn2)cc1S(=O)(=O)Nc1ccc(Br)cc1 | inconclusive: 35.5 µM [inhibitor, single point] |
| COC(=O)c1c(NC(=O)CCCOc2ccccc2C)sc2c1CCC2 | inactive |
| CCCC/C(O)=C1\C(=O)CC(C)(C)CC1=Nc1ccc(N)cc1 | inactive |
| S=c1[nH]nc(-c2cc(-c3ccccc3)n[nH]2)n1/N=C/c1cccc(Cl)c1 | inconclusive: 8.91 µM [inhibitor, partial curve, poor fit] |
| CN(C(=O)COC(=O)c1c2c(nc3ccccc13)CCCC2)c1c(N)n(Cc2ccccc2)c(=O)[nH]c1=O | inconclusive: 35.5 µM [inhibitor, partial curve, poor fit] |
| Cc1ccc(C(C)C)cc1OCC(=O)Nc1nnc(C2CC2)s1 | inconclusive: 0.562 µM [inhibitor, full curve, poor fit] |
| COc1ccc2c(c1)CC1(CN2C)C(=O)NC(=O)N(CCc2ccccc2)C1=O (configuration not stated) | inactive |

From PubChem BioAssay AID540256 (National Center for Advancing Translational Sciences (NCATS), 2011)
